These are yes or no findings as the source states them, for the method shown. Binding seen in cells or lysates may run through a third protein. A result given as binding can be weak or reduced; the word gives no strength.
Molecular target: mitochondrial antiviral signalling (MAVS) protein (cattle (endogenous in bovine bladder mucosa))
Test: co-IP; 1 mg total protein extract (RIPA buffer) of healthy and diseased bovine bladder; anti-MAVS antibody, Protein A/G-Plus Agarose overnight at 4°C, four washes in lysis buffer; Western blot of the immunoprecipitates

B1: Sec13 (protein, UniProt Q3ZCC9 1-322)
chain: MVSVINTVDTSHEDMIHDAQMDYYGTRLATCSSDRSVKIFDVRNGGQILVADLRGHEGPVWQVAWAHPMYGNILASCSYDRKVIIWKEENGTWEKTHEHTGHDSSVNSVCWAPHDYGLILACGSSDGAISLLTYTGLGQWEVKKINNAHTIGCNAVSWAPAVVPGSLIDQPSGQKPNYIKKFASGGCDNLIKLWKEEEDGQWKEEQKLEAHSDWVRDVAWAPSIGLPTSTIASCSQDGRVFVWTCDDASGNTWSPKLLHKFNDVVWHVSWSITANILAVSGGDNKVTLWKESVDGQWVCISDVNKGQGPVSTSVTEGQQNDQ
- binding: binds
